Measurements: PubChem BioAssay AID2685 (National Center for Advancing Translational Sciences (NCATS), 2010)
The list shows a part of the results. Further columns of the screen follow, without active or inactive calls. Most of these compounds were active or inconclusive in the main read-out, so they are no random draw. Potencies come from curve fits of mixed quality, noted in brackets.

Assay: qHTS Assay for Lipid Storage Modulators in Drosophila S3 Cells;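 for cell number change: cells counted by Cell Tracker Red CMTPX staining in the red channel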
Settings: BODIPY lipid droplet fluorescence, 18-24 h; for cell number change: measured here: cell count max response, cells fed with added oleic acid
Procedure, shortened: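 Drosophila S3 cells got compounds at several concentrations plus oleic acid (400 uM solution). Laser-scanning cytometry with 488 nm excitation read lipid droplets at 500-530 nm and cells at 575-640 nm. Percent activity was relative to 20 uM Triacsin C.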

[1] = measured here: cell number channel AC50, cells fed with added oleic acid
[2] = measured here: lipid fluorescence (Fed channel) AC50, cells fed with added oleic acid

| SMILES | AC50 [1] | AC50 [2] | cell number change [%] |
| --- | --- | --- | --- |
| CCn1c(CSc2ncccn2)nnc1SCC(=O)N1c2ccccc2CC1C (configuration not stated) | 0.58 µM [rising, single point] | – | – |
| O=C(OCC(=O)N1CCc2ccccc21)C1=COCCO1 | – | 0.00731 µM [falling, full curve, poor fit] | – |
| CCc1nnc(NC(=O)CSc2nnc(-c3cccnc3)n2CCc2ccccc2)s1 | – | 8.2 µM [rising, partial curve] | 18.1 |
| CCOc1ccccc1C(=O)NCC(=O)N(C)Cc1cccnc1 | – | 29.1 µM [rising, single point] | -21.4 |
| O=C(CSc1cccc[n+]1[O-])N1CCCCCC1 | – | – | 26 |
| COc1ccc(NC(=O)Nc2ccc(Cc3ccncc3)cc2)cc1OC | – | 0.231 µM [rising, full curve] | 26.1 |
| COc1cc(NC(=O)c2ccccc2F)ccc1NC(=O)c1ccccc1Cl | 0.461 µM [rising, full curve, poor fit] | – | – |
| COc1ccc(-n2nnc3c(=O)n(CC(=O)N4CCC(C)CC4)cnc32)cc1 | 10.3 µM [rising, partial curve, poor fit] | – | 44.9 |
| COc1ccc(-c2cc(C(=O)N3CC4(C)CC3CC(C)(C)C4)no2)cc1 (configuration not stated) | – | – | -27.2 |
| CCOC(=O)c1ccc(-n2c(-c3ccco3)nc3ccccc3c2=O)cc1 | – | 2.91 µM [rising, partial curve] | -9.15 |
| CCOC(=O)N1CCC(NC(=O)Cn2nc(-c3ccccc3)ccc2=O)CC1 | – | 6.51 µM [falling, single point] | 7.75 |
| CC(C)OC(=O)c1c(-c2ccc(C(C)C)cc2)csc1NC(=O)C1CCCO1 (configuration not stated) | 9.2 µM [falling, partial curve, poor fit] | 0.0517 µM [falling, full curve, poor fit] | -39.9 |
| CCOC(=O)N1CCN(C(=O)C2CCN(S(=O)(=O)c3ccc(Br)s3)CC2)CC1 | 3.66 µM [rising, single point] | – | 21.4 |
| C=CCN1C(=O)SC(Cc2cccc(OC)c2O)C1=O (configuration not stated) | 0.00411 µM [rising, full curve, poor fit] | – | 33.7 |
| CC(C)Sc1n[nH]c(=O)n1-c1ccccc1 | – | 3.66 µM [falling, single point] | -9.13 |
| CCCCC(CCC(=O)Nc1cc([N+](=O)[O-])ccc1O)C(=O)O (configuration not stated) | – | – | 26.2 |
| Cc1[nH]c(=O)c(S(=O)(=O)c2ccccc2)c(C)c1Cl | 2.31 µM [falling, partial curve] | – | -7.75 |
| COc1ccccc1OCC(O)Cn1c(=N)n(Cc2ccccc2)c2ccccc21 (configuration not stated) | 3.66 µM [falling, full curve] | 29.1 µM [falling, single point] | -76.1 |

Of the compounds above, these contain an aryl thioether with sulfur outside any ring:

| SMILES | AC50 [1] | AC50 [2] | cell number change [%] |
| --- | --- | --- | --- |
| CCn1c(CSc2ncccn2)nnc1SCC(=O)N1c2ccccc2CC1C (configuration not stated) | 0.58 µM [rising, single point] | – | – |
| CCc1nnc(NC(=O)CSc2nnc(-c3cccnc3)n2CCc2ccccc2)s1 | – | 8.2 µM [rising, partial curve] | 18.1 |
| O=C(CSc1cccc[n+]1[O-])N1CCCCCC1 | – | – | 26 |
| CC(C)Sc1n[nH]c(=O)n1-c1ccccc1 | – | 3.66 µM [falling, single point] | -9.13 |
